Values of other authors in patent US20210154372A1, “MEDICAL DEVICE WITH DRUG-ELUTING COATING AND INTERMEDIATE LAYER” (C.R. Bard, Inc., priority 2017, published 2021).
For at least one compound, name, drawing or mass did not settle the structure.

Details: cited from earlier work

Question: Which HLB value does the source give for CCCCC(CC)COC(=O)CC(C(=O)OCC(CC)CCCC)S(=O)(=O)[O-].[Na+] (stereo not shown) [docusate sodium] here?
Answer: The HLB value was 10.
